At least one structure is not confirmed: it was looked up by name or label, or the drawing left a doubt.
Test system: natural killers (CD3−, CD16+ and CD56+)
Experiment: cytotoxic activity of natural killers against K-562 cells
Type: cell-based, human
Conditions: 5.0 μg/ml; Medium control level of CI
Method: Labeled cells of […] of myeloblastoid Strain K-562, as well as mononuclear cells of 10 healthy blood donors and 10 patients with various diseases with low and high levels of cytotoxicity, were used for the study of effects of various concentrations of the preparation on cytotoxic activity of natural killers (CD3^−, CD16^+ and CD56^+).
The used Strain K-562 cells to effector cells ratio was 1:25 (100 μl of labeled cells and 100 μl of mononuclear cells). The studies were carried out using 96-well plates; incubation for 16 to 24 hours in a CO2-incubator at 37° C. was carried out. Then, the contents of the wells was transferred to filters, washed, dried and placed in solution with scintillation liquid with consecutive determination of index using a β-counter. Cytotoxic index (CI) was calculated using the following formula: [formula]
A=the target cells radioactivity in the presence of effector cells;
B=radioactivity after cells treatment with […] (maximum value);
C=radioactivity of target cells in the absence of effector cells.

CNc1cccc2c(=O)[nH][nH]c(=O)c12.[Na] [sodium salt of 5-methylamino-2,3-dihydrophthalazine-1,4-dione]
Cytotoxic index level, % (M): 38.S ± 0.34%
